Our source for the z-score values is PubChem BioAssay AID1508600 (Functional Genomics Laboratory (NCATS/FGL), 2020).

Hit rate of the full screen: of about 53,000 sequences, about 3,700 (7%) were called active.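 The calls were made as follows: active = gene knockdowns whose robust z-score for IL-1 alpha signal is at least 2 or at most -2, so actives lie on both sides; inactive = the rest.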 The list shows a part of the results.

A short description of the experiment: Components of the Cytosolic LPS Sensing Pathway: Gene Identification via Genome-wide siRNA Screen.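 Also: robust z of the log signal after scaling to non-targeting control siRNA wells of the plate.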 Conditions: RAW264.7 macrophages, IL-1a HTRF, actives lie on both sides, screened at 100 nM (by protocol), cells primed 5 h with Pam3CSK4 first. A digest of the protocol:
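Mouse macrophage line RAW264.7 is transfected with siRNA (100 nM final), grown 48h, primed with TLR ligand Pam3CSK4 5 h and given intracellular LipidA 24 h. IL-1a in supernatant is read by HTRF and viability by luminescence.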
In general terms: Time-resolved FRET reads energy transfer from a long-lived donor to a nearby acceptor.
Take GGACAGCUACUUAUUUCUUTT against Vmn1r56: the z-score is inactive: -1.88.

In the case of GCGGCUAUCUGUAGUAGGUTT against Map3k2, the z-score is inactive: -0.132.

GCUGCUGUUUAAUUGCUGUTT against Olfr807: the z-score is inactive: -0.201.

For the sequence GGAUGAUUUAUGGUUACUGTT against Vmn1r80, the z-score is active: 2.01.

On to CGUUUCUCAGCAAACUUACTT against Il17a, for which the z-score is inactive: 0.669.

Consider GGUACUCCAGAAUAGAAGCTT against Mstn, for which the z-score is inactive: 0.0165.

Turning to GGCUCUGGCCAUAUUUUGGTT against Olfr549, the z-score is inactive: -1.44.

For the sequence GCCCUUUCCGUCUGAAAUCTT against Hydin, the z-score is active: 2.06.

Consider GGUCCAAGUAGCUCUUCACTT against Olfr5, for which the z-score is inactive: -1.2.

In the case of GGAACUUCUCAAAAGGCUGTT against Tspoap1, the z-score is inactive: -0.0418.

CGGCACUCGAAAGUUUUUATT against Rassf2: the z-score was inactive: 0.271.

With GGGCCUCUUCAUCUUUCUCTT against Adgrd1, the z-score was inactive: 0.549.

Take GGAGUUAUACAGGUUUAUGTT against Nup155: the z-score is inactive: -1.05.

For GGACUUCAACAAGACCAUCTT against Proser2, the z-score is inactive: 1.55.

For the sequence GGUCUUUUGUAAAAACCCUTT against Sytl2, the z-score is inactive: 0.099.

Consider CCAGUGGAGUAAACUGUAATT against Ltbp1, for which the z-score is active: 2.24.

As for GGAAAGACAAAAUCUAUGATT against Peg3, the z-score is inactive: -0.777.

For the sequence GGAUCAUAUGCAGAAAUCUTT against Zfp62, the z-score was inactive: 0.993.

Consider GGAGGAGUUUCGCUACGGATT against Sars2, for which the z-score was inactive: -0.00587.

Consider GGAAUACCAGACCACACUGTT against Rab7b, for which the z-score was inactive: 0.275.

With GGUGUCAAGAAGAAUGUCCTT against Megf11, the z-score is active: 3.2.

Regarding GGCUCAAAAAGAAAGAGUUTT against Myh2, the z-score was inactive: -0.924.

With CCUCAACACUCAGCUCAAUTT against Ifna14, the z-score is active: -2.67.

For the sequence CCUUCGAGAUUGAACUGUATT against Numbl, the z-score was inactive: 0.192.

Take GGCUGAUGUGGUGUGCUAUTT against Aoah: the z-score is inactive: -0.0133.

As for GCCUAUCACGAGCUAUGAUTT against Shkbp1, the z-score was inactive: -1.5.

For the sequence GGAGAUACGCAGAGUUUGATT against Sgk3, the z-score was inactive: -0.0382.

Take CCUUCGUCGACAUUGCUGUTT against Zfp282: the z-score was inactive: -0.619.

As for CGUGAAAAAGUUAGCAAGUTT against Tars2, the z-score is inactive: 0.198.

For the sequence GGACAUGCUGGGUGAAGAATT against Ikbkg, the z-score was inactive: -1.84.
